Measurements from PMC11178496.
Results are given in words; binding and its absence hold for the method and conditions named. In cells and extracts the contact can be indirect. Some binding calls cover weakened binding; strength is not graded here.

Sequences of proteins named here, by UniProt entry; tags and fusion partners are left off.
UniProt O14744: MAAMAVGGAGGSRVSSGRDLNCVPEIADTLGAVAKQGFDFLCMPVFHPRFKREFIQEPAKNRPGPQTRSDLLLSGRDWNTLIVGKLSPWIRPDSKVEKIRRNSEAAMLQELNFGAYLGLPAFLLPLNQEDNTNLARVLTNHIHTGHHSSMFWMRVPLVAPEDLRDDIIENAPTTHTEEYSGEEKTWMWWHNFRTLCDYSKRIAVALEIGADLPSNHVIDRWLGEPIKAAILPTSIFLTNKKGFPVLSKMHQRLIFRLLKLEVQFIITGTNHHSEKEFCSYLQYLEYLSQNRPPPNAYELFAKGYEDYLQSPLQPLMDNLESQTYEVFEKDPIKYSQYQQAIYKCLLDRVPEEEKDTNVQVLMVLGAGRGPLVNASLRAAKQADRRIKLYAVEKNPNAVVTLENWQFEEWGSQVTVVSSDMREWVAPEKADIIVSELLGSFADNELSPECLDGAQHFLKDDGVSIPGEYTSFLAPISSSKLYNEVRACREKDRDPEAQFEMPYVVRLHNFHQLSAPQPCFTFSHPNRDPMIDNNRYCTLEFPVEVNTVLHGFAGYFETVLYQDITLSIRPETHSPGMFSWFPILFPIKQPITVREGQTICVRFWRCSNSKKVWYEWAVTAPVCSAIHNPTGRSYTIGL
UniProt Q9BQA1: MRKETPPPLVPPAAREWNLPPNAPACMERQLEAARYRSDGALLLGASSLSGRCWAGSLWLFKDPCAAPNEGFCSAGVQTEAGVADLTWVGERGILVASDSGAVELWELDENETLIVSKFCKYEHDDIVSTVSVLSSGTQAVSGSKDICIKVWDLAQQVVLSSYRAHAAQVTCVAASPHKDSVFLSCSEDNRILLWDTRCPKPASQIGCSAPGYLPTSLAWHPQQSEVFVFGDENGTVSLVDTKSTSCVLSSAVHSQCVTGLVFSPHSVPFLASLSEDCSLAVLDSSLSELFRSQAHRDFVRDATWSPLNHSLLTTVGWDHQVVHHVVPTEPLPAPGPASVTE
UniProt Q14790: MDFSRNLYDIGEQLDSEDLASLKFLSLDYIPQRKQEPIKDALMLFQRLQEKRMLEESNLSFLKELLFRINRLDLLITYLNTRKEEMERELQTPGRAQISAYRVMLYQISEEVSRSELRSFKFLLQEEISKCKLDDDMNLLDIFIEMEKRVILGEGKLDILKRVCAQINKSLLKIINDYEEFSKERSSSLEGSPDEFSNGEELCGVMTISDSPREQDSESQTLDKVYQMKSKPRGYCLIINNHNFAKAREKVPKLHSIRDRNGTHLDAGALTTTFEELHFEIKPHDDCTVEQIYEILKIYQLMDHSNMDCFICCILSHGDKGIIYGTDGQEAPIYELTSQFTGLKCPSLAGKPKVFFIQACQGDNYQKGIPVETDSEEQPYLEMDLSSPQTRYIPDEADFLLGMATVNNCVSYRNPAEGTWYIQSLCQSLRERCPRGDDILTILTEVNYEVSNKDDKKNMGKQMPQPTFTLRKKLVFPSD

Assays:
[1] = molecular target: PRMT5 (human (endogenous in SKW 6.4)) (UniProt O14744); experiment: co-IP; PRMT5-co-IP, antibody immobilised on Protein G sepharose beads (Pierce Co-Immunoprecipitation Kit); Western Blot for procaspase-8
[2] = molecular target: MEP50/WD45/WDR77 (WD repeat-containing protein) (human (endogenous in SKW 6.4)) (UniProt Q9BQA1); experiment: co-IP; WD45-IP, antibody added to the lysate, then Sepharose-A beads, six washes with PBS; Western Blot for procaspase-8
[3] = molecular target: Procaspase-8 (human (endogenous in SKW 6.4)) (UniProt Q14790); experiment: co-IP; caspase-8-co-IP, antibody immobilised on Protein G sepharose beads (Pierce Co-Immunoprecipitation Kit); SKW 6.4 cells with or without CD95L stimulation; Western Blot

Substance	binding [1]	binding [2]	binding [3]
Procaspase-8 (from UniProt Q14790 1-479) (enzyme)	binds	binds	
PRMT5 (from UniProt O14744 1-637) (enzyme)			binds
MEP50/WD45/WDR77 (WD repeat-containing protein) (from UniProt Q9BQA1 1-342)			binds
